Experiment: Permeability of compound by PAMPA-BBB assay

COc1cc2c(cc1OC)C(=O)C(CC1CCN(Cc3ccccc3)CC1)C2 (stereo unspecified) [DONEPEZIL]
Papp: 23.4 ×10⁻⁶ cm/s
